# Screening data, single-dose tests

Measurements from “University of Dundee, Small-Polar-MMV Screening Library” (2021), ChEMBL document CHEMBL3988442.

Results are given as percent effect.
How 0% and 100% were set is not recorded. Most values in the screen are low, and negative values occur.
This is an unselected part of the compounds tested.

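Whole-parasite assay of Trypanosoma brucei over 72 hours; the read-out is not stated. Compounds at 30 µM. Direction is inferred from retests: higher values go with stronger inhibition. Values scatter widely below zero; nearly all retest evidence comes from the higher of the two concentrations used. Size under these conditions: about 64,000 compounds, about 940 of them at 50% or above in at least one test.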

{"structure": "Cc1nccc(C(=O)N2CCCN(Cc3nccn3C(C)C)CC2)n1", "effect": 3.073}
{"structure": "COC(C)(C)Cn1ccnc1-c1cccc(C(C)N(C)C)c1", "stereo": "stereo unspecified", "effect": -19.87}
{"structure": "CC(=O)N1CCc2[nH]cnc2C1C1=CCCN(CCn2cccc2)C1", "stereo": "stereo unspecified", "effect": 19.2}
{"structure": "CCCC(O)CN1CCC(=O)N(CCOC)Cc2ccccc21", "stereo": "stereo unspecified", "effect": -37.7}
{"structure": "O=C(O)C(F)(F)F.O=c1cc(Cn2cncn2)nc2n1CCCN(Cc1ccc(F)cc1)C2", "effect": 27.77}
{"structure": "CCOCC(=O)N1CCC(c2cc3ncccc3c(O)n2)CC1", "effect": -8.546}
{"structure": "Cc1cnc2n(c1=O)C(CC(=O)NCc1ccc(F)cc1)CS2", "stereo": "stereo unspecified", "effect": -25.09}
{"structure": "COc1ccccc1OC1(C(=O)O)CCN(c2ncnc(C)c2C)CC1", "effect": -42.78}
{"structure": "COCCN1CCC2(CC1)CC(OCC1CC1)c1ccc(C)cc12", "stereo": "stereo unspecified", "effect": -45.89}
{"structure": "CS(=O)(=O)NC1CCN(Cc2coc(-c3ccc(Cl)cc3)n2)CC1", "effect": -62.43}
{"structure": "Cc1ncsc1C(=O)N1CCC(O)(CN2CCc3ccccc3C2)C1", "stereo": "stereo unspecified", "effect": -34.78}
{"structure": "CN(C)CCN1CC(C(=O)N2CCC(c3nccn3C)CC2)CC1=O", "stereo": "stereo unspecified", "effect": -11.36}
{"structure": "CCN(CC)C(=O)c1ccn(COc2ccc(F)cc2)n1", "effect": -4.114}
{"structure": "O=C1NCCN2CCN(C(=O)Nc3ccc(-c4ccccc4)cc3)CC12", "stereo": "stereo unspecified", "effect": -20.99}
{"structure": "Cc1ccc(CN2CC(C(=O)NC(C)C)C3(CCOCC3)C2)s1.O=C(O)C(F)(F)F", "stereo": "stereo unspecified", "effect": -28.18}
{"structure": "Cc1c(C(=O)NCC2CCCO2)nnn1-c1cccc2c1CCN(C)C2", "stereo": "stereo unspecified", "effect": -5.181}
{"structure": "Cc1ccc2c(c1)C1(CCNCC1)CC2OCC1CC1", "stereo": "stereo unspecified", "effect": -19.42}
{"structure": "O=C(c1ccccc1)N(CC1CC1)c1cccnc1", "effect": -76.93}
{"structure": "Cc1ccsc1C(=O)NC1CCS(=O)(=O)c2ccccc21", "stereo": "stereo unspecified", "effect": -9.459}
{"structure": "CCC(O)CN(c1ccccc1)S(=O)(=O)c1cnc(C)s1", "stereo": "stereo unspecified", "effect": 3.079}
{"structure": "Cc1nonc1C1CCCN1Cc1ccc(C(=O)Nc2nccs2)cc1", "stereo": "stereo unspecified", "effect": 4.067}
{"structure": "COc1ccc(-c2ccnc(N)c2)c(C)c1", "effect": -8.772}
{"structure": "CCC(CC)N(C)S(=O)(=O)c1ccc(CCNC(C)=O)s1", "effect": -18.1}
{"structure": "COc1ccc(C2CCCN2C(=O)NCCNc2ncccn2)cc1", "stereo": "stereo unspecified", "effect": -103.8}
{"structure": "CCN1CCCCC1C(=O)Nc1cccc(-c2nnc[nH]2)c1", "stereo": "stereo unspecified", "effect": 2.593}
{"structure": "Oc1ccc(Cl)cc1CNCc1ccccc1Cl", "effect": -15.72}
{"structure": "COCCC1COC2(CCN(C(=O)c3ccccc3)CC2)C1", "stereo": "stereo unspecified", "effect": -555.7}
{"structure": "Cc1ccc(CN(Cc2cc(=O)n3cccc(C)c3n2)C(C)C)o1", "effect": 5.545}
{"structure": "CCn1cc2c(n1)C(COC)CN(C(=O)COc1ccccc1)C2", "stereo": "stereo unspecified", "effect": -58.61}
{"structure": "CC(C)N(C)Cc1nnc2n1CCN(CC1CC1)CC2.O=C(O)C(F)(F)F.O=C(O)C(F)(F)F", "effect": -30.64}
{"structure": "O=C(O)C(F)(F)F.[H][C@@]12CCN(C3CCOCC3)C[C@]1([H])[C@H](C(=O)NC1CC1)CCO2", "effect": 8.232}
{"structure": "COCCN1CCC(CNC(=O)c2cc(Cl)c[nH]2)CC1", "effect": -11.58}
{"structure": "COc1ccnc(N2CCN(C(=O)CCc3nccs3)CC2)n1", "effect": -12.59}
{"structure": "CC(C)(C)c1csc(C2CCCCN2C(=O)CCn2cncn2)n1", "stereo": "stereo unspecified", "effect": -37.09}
{"structure": "O=C(c1ccccn1)C1CCCN(c2nccc(CCC(F)(F)F)n2)C1", "stereo": "stereo unspecified", "effect": -10.3}
{"structure": "O=C(O)C(F)(F)F.[H][C@]12CCC[C@@H](CNc3ncccn3)[C@@]1([H])CN(Cc1cnn(C)c1)C2", "effect": -1.017}
{"structure": "Cc1cc(C[C@@H]2COC[C@@H]2NC(=O)CN2CCCC2)on1", "effect": -68.52}
{"structure": "COCC(=O)NCc1cccc(OCCN(C)C2CCOCC2)c1", "effect": -38.1}
{"structure": "COc1cccc(OC)c1CN1CCC2(CC(Nc3ccncn3)C2)C1", "stereo": "stereo unspecified", "effect": -16.71}
{"structure": "COCCNC(=O)[C@H]1C[C@@](CC(C)C)(C(=O)O)N(C)[C@H]1c1cccnc1", "effect": -16.24}
{"structure": "Cn1cccc1C(=O)NCc1cnc2n1CCN(CC1CC1)C2.O=C(O)C(F)(F)F", "effect": 0.4299}
{"structure": "CNC(=O)NC(=O)Cn1cc(-c2ccccc2)cn1", "effect": 43.85}
{"structure": "Cc1ccccc1C1CCN(C(=O)CCNS(C)(=O)=O)C1", "stereo": "stereo unspecified", "effect": -67.52}
{"structure": "Cc1nccn1-c1ccc(C(=O)NCC(F)(F)F)nn1", "effect": 5.853}
{"structure": "CN(C)Cc1ccc(C2CCCCN2C(=O)c2cccnn2)cc1", "stereo": "stereo unspecified", "effect": -26}

The first 3 entries again:

structure	effect
Cc1nccc(C(=O)N2CCCN(Cc3nccn3C(C)C)CC2)n1	3.073
COC(C)(C)Cn1ccnc1-c1cccc(C(C)N(C)C)c1 (stereo unspecified)	-19.87
CC(=O)N1CCc2[nH]cnc2C1C1=CCCN(CCn2cccc2)C1 (stereo unspecified)	19.2